# Laboratory results as given in the supplement of paper PMC12823440, “Inhibitors supercharge kinase turnover through native proteolytic circuits” (Nature, 2025).
# The chains behind the UniProt entries cited, without tags or fusion partners. Where a name states a change or a piece, a line headed by the entry shows the natural chain unless it says otherwise.
# UniProt Q9BRS2: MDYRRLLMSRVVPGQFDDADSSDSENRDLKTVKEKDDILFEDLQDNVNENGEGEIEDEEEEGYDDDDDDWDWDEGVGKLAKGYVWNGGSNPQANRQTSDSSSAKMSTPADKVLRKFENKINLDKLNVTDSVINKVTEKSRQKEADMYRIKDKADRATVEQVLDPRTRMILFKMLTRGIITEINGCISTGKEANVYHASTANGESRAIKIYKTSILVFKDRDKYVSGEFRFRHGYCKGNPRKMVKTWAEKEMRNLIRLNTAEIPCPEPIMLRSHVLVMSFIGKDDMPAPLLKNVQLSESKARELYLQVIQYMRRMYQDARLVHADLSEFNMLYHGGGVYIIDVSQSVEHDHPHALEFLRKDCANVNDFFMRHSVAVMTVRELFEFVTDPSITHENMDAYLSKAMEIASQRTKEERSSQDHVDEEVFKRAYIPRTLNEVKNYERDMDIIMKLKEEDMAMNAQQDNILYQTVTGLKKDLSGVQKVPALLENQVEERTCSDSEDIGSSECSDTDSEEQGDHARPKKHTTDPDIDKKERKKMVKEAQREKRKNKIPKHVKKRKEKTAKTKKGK
# UniProt Q13546: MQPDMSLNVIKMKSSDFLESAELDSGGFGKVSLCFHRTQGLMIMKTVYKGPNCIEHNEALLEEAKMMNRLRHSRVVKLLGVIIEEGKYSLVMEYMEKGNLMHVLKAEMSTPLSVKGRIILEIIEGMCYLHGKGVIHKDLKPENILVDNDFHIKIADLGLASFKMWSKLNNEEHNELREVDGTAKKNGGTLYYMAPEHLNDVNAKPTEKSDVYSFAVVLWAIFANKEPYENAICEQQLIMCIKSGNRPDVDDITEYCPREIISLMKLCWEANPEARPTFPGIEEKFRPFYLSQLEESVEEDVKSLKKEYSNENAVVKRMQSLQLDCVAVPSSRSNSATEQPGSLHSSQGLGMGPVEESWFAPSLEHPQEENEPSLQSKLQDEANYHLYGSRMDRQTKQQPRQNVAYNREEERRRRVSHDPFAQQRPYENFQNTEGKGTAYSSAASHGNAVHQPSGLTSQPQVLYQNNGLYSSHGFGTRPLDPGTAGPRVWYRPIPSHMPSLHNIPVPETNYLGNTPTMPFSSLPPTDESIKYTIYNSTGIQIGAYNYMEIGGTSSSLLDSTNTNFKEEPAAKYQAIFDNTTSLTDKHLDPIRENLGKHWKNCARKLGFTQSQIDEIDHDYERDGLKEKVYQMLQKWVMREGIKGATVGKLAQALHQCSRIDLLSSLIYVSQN
# Counter-ions that a name gives are not always drawn. The list shows a part of the results. Hit calls seldom repeat between salt and free forms of one compound.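 Kinases were expressed as nanoluciferase fusions in K562 cells and luminescence was read every 4 h between 2 and 18 h as percent of control, DMSO set to 100% and a positive control to 0%. A time point counts as decreased when the signal drops significantly (2 sigma). The hit call is the authors' own, does not follow from the count of time points alone, and its rule is not shown.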
# Molecular target: RIOK1 (UniProt Q9BRS2)
# Assay: number of time points (of 5) at which kinase-Nluc abundance scored as decreased, DMSO-normalised (count); higher = more persistent destabilization
# Details: K562; 2-18 h
row,SMILES,number of time points
1,O=C(NCCO)c1ccc2c(c1)nc(Nc1cccc(Cl)c1)c1ccncc12 [CK2 inhibitor 2] (10 µM),0
2,COc1ccc(CC(=O)Nc2nc3c(s2)CCc2ccccc2-3)cc1OC (10 µM),0
3,c1cc2c(cc1O[C@H]1OC[C@H]3[C@@H]1CO[C@@H]3c1ccc3c(c1)OCO3)OCO2 [Sesamolin] (10 µM),0
4,OCCNC1CCCc2c1[nH]c1ccc(-c3ccccc3)cc21 (stereo not given) (2.5 µM),0
5,CNc1nc(Nc2cnn(C3CCN(C4COC4)CC3F)c2Cl)ncc1C(F)(F)F (stereo not given) (10 µM),0
6,Cc1cc2cc(Nc3ccnc(Nc4ccc5[nH]c(C)cc5c4)n3)ccc2[nH]1 (2.5 µM),0
7,CC(C)(C)NC(=O)c1cncn1C1CCN(c2ccc(-c3nnc(C(F)(F)F)o3)cn2)CC1 (10 µM),0

# Molecular target: RIPK1 (UniProt Q13546)
# Assay: as above
# Details: K562; 2-18 h
row,SMILES,number of time points
1,C[C@@H](c1ccc2nccn2c1)n1nnc2ncc(-c3cnn(C)c3)nc21 [Savolitinib] (10 µM),0
2,CN1C(=O)C(Cc2c[nH]c3ccccc23)NC1=S (stereo not given) [Necrostatin-1] (10 µM),0
3,C[C@@H]1C(=O)O[C@H](C)[C@H]1C[C@@H](O)[C@](C)(O)[C@H]1CC[C@@]2(O)C3=CC(=O)[C@@H]4C[C@@H](O)[C@@H](O)C[C@]4(C)[C@H]3CC[C@]12C [Cyasterone] (10 µM),0
4,CC(c1ccc(-c2cnc3c(-c4ccc(S(N)(=O)=O)c5ccccc45)cnn3c2)cc1)N1CCCC1 (stereo not given) (2.5 µM),0
5,CCn1c(=O)c(-c2ccc(-c3cncc(C)n3)cc2Cl)cc2cnc(NCCC3CCN(C)CC3)nc21 (10 µM),0
6,"O=C(O)c1cc(O)ccc1O [2,5-Dihydroxybenzoic acid] (10 µM)",0
7,CC(=NNC(=O)c1ccc(C)c(Br)c1)c1ccc(O)cc1O [mTOR inhibitor-1] (2.5 µM),0
8,Nc1ncnc2c1ncn2[C@@H]1O[C@H](CO)C[C@H]1O [Cordycepin] (10 µM),0
9,C=CC(=O)Nc1cc2c(Nc3ccc(OCc4ccccn4)c(Cl)c3)ncnc2cc1OCCN1CCOCC1 (10 µM),0
10,Cc1ccc(S(=O)(=O)Nc2ccccc2C=Nc2ccccc2NS(=O)(=O)c2ccc(C)cc2)cc1 (10 µM),0
11,CCOc1cc(C(=O)N2CCC(N3CCN(C)CC3)CC2)ccc1Nc1ncc2c(n1)N(C1CCCC1)c1ccccc1C(=O)N2C (10 µM),0
12,Cn1cnc(-c2cc3nccc(Oc4ccc(NC(=S)NC(=O)Cc5ccccc5)cc4F)c3s2)c1 [MGCD-265 analog] (10 µM),1
13,Cn1c(=O)c(F)c(Nc2ccc(I)cc2F)c2c(=O)n(C[C@@H](O)CO)cnc21 (10 µM),0
14,Nc1ncnc2c1c(-c1ccc(Oc3ccccc3)cc1)nn2C1CCNCC1 [N-piperidine Ibrutinib (hydrochloride)] (10 µM),0
15,Cc1csc(-c2nnc(Nc3ccc(Oc4ncccc4-c4ccnc(N)n4)cc3)c3ccccc23)c1 (2.5 µM),0
16,O=C(O)CCc1ccc(O)c(O)c1 [Dihydrocaffeic acid] (10 µM),0
17,COCCOc1cnc(Sc2cc(C)c(-c3csc(NC(=O)c4ccncc4)n3)c(C)c2)cn1 [T-1101 (tosylate)] (2.5 µM),0
18,Cc1cc(NC(=O)c2cccc(NC(=O)/C=C/CN(C)C)c2)ccc1Nc1nccc(-c2cccnc2)n1 (10 µM),0
19,Cc1c(NC(=O)OC[C@@H]2COCCN2)cn2ncnc(Nc3ccc4c(cnn4Cc4cccc(F)c4)c3)c12 (10 µM),0

row,SMILES,number of time points
1,Cc1ccc(-c2c(C(=O)CF)n(CCCO)c3ncnc(N)c23)cc1 (10 µM),0
2,Cc1ccc(-c2c(C(=O)CCl)n(CCCO)c3ncnc(N)c23)cc1 (10 µM),3
3,COc1cc(F)c(F)c(Nc2ccc(I)cc2F)c1NS(=O)(=O)C1(C[C@H](O)CO)CC1 [Refametinib] (10 µM),0
4,CCN(CC)c1ccc2cc(C(=O)N3CCN(C(=O)C4=Cc5c(Br)cccc5S4(=O)=O)CC3)c(=O)oc2c1 (2 µM),0
5,COc1ccc(C(=C2C(=O)Nc3ccccc32)c2ccc(OC)cc2)cc1 (10 µM),0
6,N#Cc1ccc2ncnc(NC3CCC(N4CCOCC4)CC3)c2c1 (stereo not given) (10 µM),0
7,NCCN1CCN(C/C=C/C(=O)N2CCC[C@@H](n3nc(-c4ccc(Oc5ccccc5)cc4)c4c(N)ncnc43)C2)CC1 [Ibrutinib-MPEA] (10 µM),0
8,CN(CC(=O)N(Cc1ccc(C2CCCCC2)cc1)c1ccc(C(=O)O)cc1)S(=O)(=O)c1c(F)c(F)c(F)c(F)c1F (2.5 µM),0
9,CCn1c(C(=O)N(C2CC2)C2CC2)cc2c3c(ncn3C)c(Nc3cc(C)n(C)n3)nc21 (10 µM),0
10,CC(C)CN(CC(=O)N1CCN(CC(OCc2ccc3ccccc3c2)c2ccc(Cl)cc2Cl)CC1)CC(C)C (stereo not given) [LYN-1604 (dihydrochloride)] (2.5 µM),0
11,COc1ccc2[nH]cc(/C=C3\C(=O)Nc4ccc(NC(=O)CCN5CCCCC5)cc43)c2c1 (2.5 µM),0
12,CC(C)=CC(=O)CCC(=O)N1CCN(Cc2cc3nc(-c4cccc5[nH]ncc45)nc(N4CCOCC4)c3s2)CC1 (10 µM),0
13,O=C(NCCO)c1ccc2c(c1)nc(Nc1cccc(Cl)c1)c1ccncc12 [CK2 inhibitor 2] (10 µM),0
14,COc1ccc(CC(=O)Nc2nc3c(s2)CCc2ccccc2-3)cc1OC (10 µM),0
15,c1cc2c(cc1O[C@H]1OC[C@H]3[C@@H]1CO[C@@H]3c1ccc3c(c1)OCO3)OCO2 [Sesamolin] (10 µM),0
16,OCCNC1CCCc2c1[nH]c1ccc(-c3ccccc3)cc21 (stereo not given) (2.5 µM),0
17,CNc1nc(Nc2cnn(C3CCN(C4COC4)CC3F)c2Cl)ncc1C(F)(F)F (stereo not given) (10 µM),0
18,Cc1cc2cc(Nc3ccnc(Nc4ccc5[nH]c(C)cc5c4)n3)ccc2[nH]1 (2.5 µM),0
19,CC(C)(C)NC(=O)c1cncn1C1CCN(c2ccc(-c3nnc(C(F)(F)F)o3)cn2)CC1 (10 µM),0
